# Library screen at single concentrations

Measurements from “University of Dundee, Small-Polar-MMV Screening Library” (2021), ChEMBL document CHEMBL3988442.

Each number is a percent effect as filed. The record does not define 0% and 100%; most values in the screen are far below 50% and negative numbers occur (in some assays of this library far below -100). Compounds were drawn at random from those tested, without regard to their results.

A: 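Assay of Toxoplasma gondii numbers, read through their beta-galactosidase reporter with a colour substrate. Concentration: 10 µM. Higher reads as fewer parasites (inferred from which compounds were picked for retests). Of about 67,000 compounds tested this way, about 260 (0.38%) reached 50% or more in at least one test.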
B: 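Whole-parasite assay of Trypanosoma brucei over 72 hours; the read-out is not stated. Tested at 30 µM. Higher reads as stronger inhibition (inferred: compounds with an IC50 in retests scored well above the rest). Values scatter widely below zero; nearly all retest evidence comes from the higher of the two concentrations used. Size under these conditions: about 64,000 compounds, about 940 of them at 50% or above in at least one test.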

With Cc1ccc(NC(=O)c2nc3c(s2)CCCN3C(=O)C2CC2)cn1.O=C(O)C(F)(F)F the screen gave A: 12.55%; B: 1.081%. With Cc1cnn(CC2CCCN2Cc2noc(-c3ccccc3)n2)c1 (configuration not stated) the screen gave A: -6.175%; B: -16.6%. With CC(=O)Nc1nc2c(s1)C1(CCN(C)CC1)Nc1ccccc1S2 the screen gave A: 12.22%; B: 83.23%. For Cc1cccc(CCC(=O)NCC2CCCN2c2cccnn2)c1 (configuration not stated) the result was A: -12.04%; B: -57.03%.

Fc1ccc(-c2noc(C3COCCO3)n2)cc1F (configuration not stated) read A: -2.122%; B: -14.17%. CCN1CCn2c(C)cnc2C12CCN(C(=O)NCC(C)C)CC2.O=C(O)C(F)(F)F gave A: -9.698%; B: -30.2%. Result for Cc1nc(N(C)C)nc(N(C)CCc2ccncc2)c1C was A: 0.7115%; B: -8.026%. O=C(C1CNCCO1)N1CCCC(c2ccccc2)(c2ccccc2)C1 (configuration not stated) gave A: 1.112%; B: -32.09%.

Result for [H][C@@]12C[C@@H](c3nnc(C4CC4)o3)O[C@]1([H])CN(C(=O)c1cccn1C)C2 was A: -21.57%; B: -89.15%. For CCC(C)NS(=O)(=O)c1ccc(C(=O)N(C)C2(C#N)CCC2)cc1 (configuration not stated) the result was A: 5.988%; B: -30.68%. O=S(=O)(C1CC1)N1CC[C@]2(C[C@H](OCC3CCOCC3)CO2)C1 read A: 6.635%; B: -14.16%. Result for CCC(=O)N1CCCC(c2ncc3c(n2)CCN(C)C3)C1 (configuration not stated) was A: -1.465%; B: 10.39%.

O=C(O)C(F)(F)F.O=C(O)C(F)(F)F.[H][C@@]12OCCN(Cc3nccs3)[C@@]1([H])CC[C@H]2OCc1cccc(C)n1 gave A: 3.818%; B: 22.69%. With CCn1ccnc1-c1nccn1-c1ccccc1CN1CCOCC1 the screen gave A: -8.651%; B: -36.09%. With CCCS(=O)(=O)N1CCC2(CC1)CCn1c(-c3cnn(C)c3)cnc12.O=C(O)C(F)(F)F the screen gave A: -7.489%; B: -5.864%. CN(Cc1noc(C(C)(C)C)n1)Cc1ccccc1N1CCCCC1 read A: -1.328%; B: -9.078%.

COc1cc(C2(C(=O)NC3CCN(C4CC4)CC3)CC2)ccc1C gave A: -6.056%; B: -12.26%. Result for COc1cc(NC(=O)c2ccc(CN3CC[C@H](O)C3)cc2)cc(OC)c1 was A: 8.247%; B: 58.59%. Cc1ccccc1C(Nc1ncnc2c1CCNC2)c1ccccc1 (configuration not stated) read A: 3.811%; B: -12.11%. Cc1ccc(C)c(OC(C)C(=O)Nc2cccnc2)c1 (configuration not stated) gave A: -11.72%; B: -20.75%.

2 of the entries, repeated:

structure,A,B
COc1cc(C2(C(=O)NC3CCN(C4CC4)CC3)CC2)ccc1C,-6.056,-12.26
O=C(C1CNCCO1)N1CCCC(c2ccccc2)(c2ccccc2)C1 (configuration not stated),1.112,-32.09